# Values of other authors, collected in paper PMC5646416 (Journal of clinical pharmacy and therapeutics, 2017).
# Conditions: single-dose pharmacokinetic studies
structure (smiles),measurement,value
CC(C)c1c(C(=O)Nc2ccccc2)c(-c2ccccc2)c(-c2ccc(F)cc2)n1CC[C@@H](O)C[C@@H](O)CC(=O)O [atorvastatin],AUC higher in rs4149056 CC homozygotes than in rs4149056 TT homozygotes,144%
